This is an account of results in the supplement of paper PMC10849652.

Chains of the proteins cited; added tags and fusions are not shown. Lines headed by an entry give the natural chain unless they say otherwise; changes in a name come on top.
UniProt P78381: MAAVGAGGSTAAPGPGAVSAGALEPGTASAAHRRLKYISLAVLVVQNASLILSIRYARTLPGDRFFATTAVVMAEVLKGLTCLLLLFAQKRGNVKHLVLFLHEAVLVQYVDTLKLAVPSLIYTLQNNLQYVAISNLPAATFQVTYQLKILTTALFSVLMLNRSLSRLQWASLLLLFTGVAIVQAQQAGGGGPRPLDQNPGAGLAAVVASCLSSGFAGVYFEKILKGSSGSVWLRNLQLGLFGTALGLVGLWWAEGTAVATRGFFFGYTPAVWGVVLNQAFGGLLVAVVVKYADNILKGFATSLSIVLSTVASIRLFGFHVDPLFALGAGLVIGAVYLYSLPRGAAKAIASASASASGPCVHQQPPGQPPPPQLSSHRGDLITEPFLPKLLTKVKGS
UniProt Q96NT5: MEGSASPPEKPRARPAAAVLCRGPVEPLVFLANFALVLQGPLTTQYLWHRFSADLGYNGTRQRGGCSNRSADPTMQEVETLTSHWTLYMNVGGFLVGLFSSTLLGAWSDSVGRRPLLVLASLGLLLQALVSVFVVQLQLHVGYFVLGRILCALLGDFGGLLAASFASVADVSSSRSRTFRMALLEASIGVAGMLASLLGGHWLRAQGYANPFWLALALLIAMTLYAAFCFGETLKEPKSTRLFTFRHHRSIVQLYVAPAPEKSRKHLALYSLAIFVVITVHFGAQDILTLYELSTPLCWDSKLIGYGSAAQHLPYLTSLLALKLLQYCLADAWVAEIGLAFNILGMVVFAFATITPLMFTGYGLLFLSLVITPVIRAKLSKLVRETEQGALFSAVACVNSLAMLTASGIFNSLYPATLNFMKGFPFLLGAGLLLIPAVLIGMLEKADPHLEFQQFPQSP
UniProt Q6ZP29: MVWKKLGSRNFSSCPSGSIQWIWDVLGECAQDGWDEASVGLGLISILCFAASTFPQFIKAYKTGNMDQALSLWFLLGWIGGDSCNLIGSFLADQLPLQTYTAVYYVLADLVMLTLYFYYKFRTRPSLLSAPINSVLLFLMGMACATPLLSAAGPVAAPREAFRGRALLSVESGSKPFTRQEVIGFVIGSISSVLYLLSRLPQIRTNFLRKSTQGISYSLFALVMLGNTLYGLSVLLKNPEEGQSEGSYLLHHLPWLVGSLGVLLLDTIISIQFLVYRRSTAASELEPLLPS
UniProt O94956: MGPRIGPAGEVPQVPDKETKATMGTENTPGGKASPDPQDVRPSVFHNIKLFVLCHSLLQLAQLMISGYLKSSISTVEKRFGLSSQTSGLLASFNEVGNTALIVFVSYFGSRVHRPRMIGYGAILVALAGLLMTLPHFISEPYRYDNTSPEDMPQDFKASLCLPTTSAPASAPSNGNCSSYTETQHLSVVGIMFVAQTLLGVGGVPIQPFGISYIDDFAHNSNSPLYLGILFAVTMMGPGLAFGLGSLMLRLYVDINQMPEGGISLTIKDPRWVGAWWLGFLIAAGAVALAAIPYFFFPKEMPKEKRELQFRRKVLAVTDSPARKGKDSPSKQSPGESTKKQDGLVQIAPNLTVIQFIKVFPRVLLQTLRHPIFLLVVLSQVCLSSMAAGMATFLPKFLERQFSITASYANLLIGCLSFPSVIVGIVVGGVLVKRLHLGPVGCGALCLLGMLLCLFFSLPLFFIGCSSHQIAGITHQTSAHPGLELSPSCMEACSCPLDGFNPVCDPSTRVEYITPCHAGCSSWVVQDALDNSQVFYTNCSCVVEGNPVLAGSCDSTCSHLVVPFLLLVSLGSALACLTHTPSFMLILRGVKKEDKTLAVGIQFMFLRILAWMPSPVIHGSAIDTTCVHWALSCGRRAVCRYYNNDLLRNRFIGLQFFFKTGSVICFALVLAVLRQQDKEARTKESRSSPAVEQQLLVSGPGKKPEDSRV
UniProt Q9BRV3: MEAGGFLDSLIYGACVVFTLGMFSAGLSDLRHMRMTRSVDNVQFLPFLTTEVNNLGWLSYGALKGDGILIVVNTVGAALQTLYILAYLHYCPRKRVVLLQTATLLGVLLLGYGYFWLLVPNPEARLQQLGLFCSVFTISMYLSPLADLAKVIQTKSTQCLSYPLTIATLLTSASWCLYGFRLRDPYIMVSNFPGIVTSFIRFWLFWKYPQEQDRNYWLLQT
UniProt Q9Y2D2: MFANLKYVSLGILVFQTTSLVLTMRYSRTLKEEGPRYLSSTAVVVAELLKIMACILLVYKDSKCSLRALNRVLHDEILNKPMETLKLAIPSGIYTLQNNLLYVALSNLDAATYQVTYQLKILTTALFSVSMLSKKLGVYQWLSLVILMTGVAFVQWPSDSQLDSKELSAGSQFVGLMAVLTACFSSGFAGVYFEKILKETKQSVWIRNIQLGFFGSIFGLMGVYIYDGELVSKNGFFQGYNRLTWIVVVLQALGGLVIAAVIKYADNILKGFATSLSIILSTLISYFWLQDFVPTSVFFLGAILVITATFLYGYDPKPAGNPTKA
UniProt Q8N2U9: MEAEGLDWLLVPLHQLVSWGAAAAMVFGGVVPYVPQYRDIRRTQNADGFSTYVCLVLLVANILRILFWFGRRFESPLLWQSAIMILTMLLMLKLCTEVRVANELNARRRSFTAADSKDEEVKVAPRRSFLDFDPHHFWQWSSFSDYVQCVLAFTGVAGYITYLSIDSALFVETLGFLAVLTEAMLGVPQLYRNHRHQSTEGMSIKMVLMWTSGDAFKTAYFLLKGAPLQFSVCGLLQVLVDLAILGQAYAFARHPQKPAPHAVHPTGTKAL
UniProt Q9NP59: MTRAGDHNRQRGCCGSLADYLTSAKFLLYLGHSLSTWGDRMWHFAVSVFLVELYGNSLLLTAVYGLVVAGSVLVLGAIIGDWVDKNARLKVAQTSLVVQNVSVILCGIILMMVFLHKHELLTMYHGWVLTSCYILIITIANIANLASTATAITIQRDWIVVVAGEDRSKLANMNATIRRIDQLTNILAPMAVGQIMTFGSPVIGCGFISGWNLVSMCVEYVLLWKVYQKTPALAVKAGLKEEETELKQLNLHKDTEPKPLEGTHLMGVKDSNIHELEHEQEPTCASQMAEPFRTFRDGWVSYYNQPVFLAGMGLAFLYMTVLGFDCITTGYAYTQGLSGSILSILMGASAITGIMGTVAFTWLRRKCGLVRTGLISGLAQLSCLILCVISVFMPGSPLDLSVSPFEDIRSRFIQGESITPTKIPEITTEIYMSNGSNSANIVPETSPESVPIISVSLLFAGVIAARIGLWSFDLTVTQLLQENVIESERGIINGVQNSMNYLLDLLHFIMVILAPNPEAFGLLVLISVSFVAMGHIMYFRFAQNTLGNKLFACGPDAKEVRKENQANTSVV
UniProt Q92504: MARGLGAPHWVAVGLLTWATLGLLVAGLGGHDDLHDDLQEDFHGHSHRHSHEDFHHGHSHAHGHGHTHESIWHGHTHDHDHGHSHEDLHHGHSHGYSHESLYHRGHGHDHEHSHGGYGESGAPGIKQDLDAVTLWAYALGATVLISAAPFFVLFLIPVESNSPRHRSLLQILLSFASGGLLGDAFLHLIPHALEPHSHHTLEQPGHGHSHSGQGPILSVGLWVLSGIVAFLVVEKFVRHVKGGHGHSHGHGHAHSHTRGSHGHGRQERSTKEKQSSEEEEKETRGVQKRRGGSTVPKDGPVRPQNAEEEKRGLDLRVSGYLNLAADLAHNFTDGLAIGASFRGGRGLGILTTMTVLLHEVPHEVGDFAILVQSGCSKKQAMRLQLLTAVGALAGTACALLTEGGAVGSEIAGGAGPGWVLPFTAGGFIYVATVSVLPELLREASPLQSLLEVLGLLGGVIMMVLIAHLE
UniProt P84022, whole entry, looked up: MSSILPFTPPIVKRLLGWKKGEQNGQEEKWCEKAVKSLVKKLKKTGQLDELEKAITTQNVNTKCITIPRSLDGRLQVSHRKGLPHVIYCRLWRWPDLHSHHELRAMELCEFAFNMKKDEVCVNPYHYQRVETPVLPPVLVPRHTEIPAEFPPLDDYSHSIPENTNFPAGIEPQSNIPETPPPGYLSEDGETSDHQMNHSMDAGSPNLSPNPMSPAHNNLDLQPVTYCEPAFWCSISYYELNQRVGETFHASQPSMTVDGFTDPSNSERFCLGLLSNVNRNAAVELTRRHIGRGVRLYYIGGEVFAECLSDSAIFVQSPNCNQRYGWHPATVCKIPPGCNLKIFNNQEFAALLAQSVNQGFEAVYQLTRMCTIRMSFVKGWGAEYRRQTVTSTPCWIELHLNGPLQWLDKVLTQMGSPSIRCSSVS
UniProt F5GZS6: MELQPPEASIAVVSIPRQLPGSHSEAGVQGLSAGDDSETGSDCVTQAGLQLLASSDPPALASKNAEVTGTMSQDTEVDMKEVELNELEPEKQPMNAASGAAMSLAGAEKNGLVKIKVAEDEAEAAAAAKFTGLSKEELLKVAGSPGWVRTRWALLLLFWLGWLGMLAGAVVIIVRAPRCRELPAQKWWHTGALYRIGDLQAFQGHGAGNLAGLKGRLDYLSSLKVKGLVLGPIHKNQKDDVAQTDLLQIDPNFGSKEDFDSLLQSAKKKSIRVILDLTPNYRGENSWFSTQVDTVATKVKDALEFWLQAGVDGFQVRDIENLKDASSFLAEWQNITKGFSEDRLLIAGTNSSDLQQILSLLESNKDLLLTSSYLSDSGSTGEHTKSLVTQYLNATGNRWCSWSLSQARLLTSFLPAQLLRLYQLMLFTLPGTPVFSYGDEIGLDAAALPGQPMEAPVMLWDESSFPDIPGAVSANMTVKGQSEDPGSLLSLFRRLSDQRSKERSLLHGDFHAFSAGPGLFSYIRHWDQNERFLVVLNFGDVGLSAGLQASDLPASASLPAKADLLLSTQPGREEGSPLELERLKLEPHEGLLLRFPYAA
UniProt Q8N755: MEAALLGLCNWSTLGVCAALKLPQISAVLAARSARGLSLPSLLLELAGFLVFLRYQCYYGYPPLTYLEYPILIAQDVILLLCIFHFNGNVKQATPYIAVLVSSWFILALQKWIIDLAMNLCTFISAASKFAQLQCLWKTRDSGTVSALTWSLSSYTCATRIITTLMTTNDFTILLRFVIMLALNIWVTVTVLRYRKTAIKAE
UniProt Q0VAQ4: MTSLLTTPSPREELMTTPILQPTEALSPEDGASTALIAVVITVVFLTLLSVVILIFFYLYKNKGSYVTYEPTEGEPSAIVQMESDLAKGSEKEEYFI
UniProt Q8WWI5: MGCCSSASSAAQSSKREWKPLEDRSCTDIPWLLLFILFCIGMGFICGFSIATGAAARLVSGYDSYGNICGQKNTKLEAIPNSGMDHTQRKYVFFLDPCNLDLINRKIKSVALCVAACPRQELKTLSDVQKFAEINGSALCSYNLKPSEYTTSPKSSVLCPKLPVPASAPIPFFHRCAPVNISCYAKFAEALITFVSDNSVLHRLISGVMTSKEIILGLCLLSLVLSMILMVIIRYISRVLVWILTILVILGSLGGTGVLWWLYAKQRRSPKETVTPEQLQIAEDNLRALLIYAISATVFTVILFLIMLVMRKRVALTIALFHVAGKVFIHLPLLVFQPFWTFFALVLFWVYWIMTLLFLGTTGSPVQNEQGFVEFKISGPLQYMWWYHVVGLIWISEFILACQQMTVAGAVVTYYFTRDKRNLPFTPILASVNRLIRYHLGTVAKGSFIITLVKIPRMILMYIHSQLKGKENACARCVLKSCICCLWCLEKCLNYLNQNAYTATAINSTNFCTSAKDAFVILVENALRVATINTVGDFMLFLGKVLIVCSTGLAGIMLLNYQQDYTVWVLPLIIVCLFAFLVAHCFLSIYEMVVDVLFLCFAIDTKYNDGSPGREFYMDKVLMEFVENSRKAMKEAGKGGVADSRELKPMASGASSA
UniProt Q9BZJ4: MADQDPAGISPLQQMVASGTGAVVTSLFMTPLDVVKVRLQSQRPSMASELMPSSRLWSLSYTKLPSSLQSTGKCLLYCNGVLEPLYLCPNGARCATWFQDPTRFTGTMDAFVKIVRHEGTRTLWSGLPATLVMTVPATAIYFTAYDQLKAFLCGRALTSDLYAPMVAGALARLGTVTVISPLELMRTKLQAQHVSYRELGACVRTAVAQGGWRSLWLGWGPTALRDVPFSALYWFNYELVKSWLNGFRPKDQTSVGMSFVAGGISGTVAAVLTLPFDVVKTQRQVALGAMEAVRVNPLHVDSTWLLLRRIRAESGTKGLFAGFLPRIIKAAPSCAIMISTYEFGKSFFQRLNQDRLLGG
UniProt Q9C0K1: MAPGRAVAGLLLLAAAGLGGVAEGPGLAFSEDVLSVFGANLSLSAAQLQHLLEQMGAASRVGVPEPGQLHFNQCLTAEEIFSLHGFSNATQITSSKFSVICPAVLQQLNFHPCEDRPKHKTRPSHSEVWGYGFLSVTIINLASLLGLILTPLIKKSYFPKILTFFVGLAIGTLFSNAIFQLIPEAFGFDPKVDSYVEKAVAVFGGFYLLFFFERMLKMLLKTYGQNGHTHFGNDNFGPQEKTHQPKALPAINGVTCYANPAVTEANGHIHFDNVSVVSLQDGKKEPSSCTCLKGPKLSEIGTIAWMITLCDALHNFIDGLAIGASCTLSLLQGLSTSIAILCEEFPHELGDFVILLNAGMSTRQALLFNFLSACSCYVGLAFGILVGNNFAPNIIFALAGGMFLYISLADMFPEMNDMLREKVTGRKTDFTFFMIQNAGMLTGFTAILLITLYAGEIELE

Some of the results follow.

Assay in all cases: log2 fold change, soluble protein after heating vs DMSO (PISA); higher = thermal stabilisation; K562 lysate, 10 uM; active = over 0.2 and 3.5 SD of the protein, either way, in both replicates (recomputed)
Compound in assay [1]: C1=CC=C(C=C1)[C@H](COC2=CC3=C(C=C2)NC(=O)N3)NC(=O)C4=CC=CN(C4=O)CC5=CC(=C(C=C5)F)F
In a few lines:
(§1)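 Pellets of K562 cells were dounce-homogenised in PBS pH 7.4 with 1 mM MgCl2, and the crude extract was held at 1 mg/mL protein for a 30 min treatment with 10 μM compound. Aliquots were heated for 3 min over 48°C-58°C and pooled before NP-40 was added to 0.5% at 4°C. The supernatant from 21,000xg for 90 min was quantified by TMTpro 16plex LC-MS/MS with channel sums equalised. Values are reported from duplicates as log-two fold change in thermal stability relative to solvent controls.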

Compound in assay [2]: CC1=C(SC2=C1C(=N[C@H](C3=NN=C(N32)C)CC(=O)N)C4=CC=C(C=C4)Cl)C
In a few lines:
as §1

Compound in assay [3]: CC1=C2C(=CC=C1)N=C(N(C2=O)C3=CC=CC=C3C)CN4C=NC5=C(N=CN=C54)N
In a few lines: as §1

Compound in assay [4]: Cc1sc2c(c1C)C(c1ccc(Cl)cc1)=N[C@@H](CC(=O)OC(C)(C)C)c1nnc(C)n1-2
In a few lines: as §1

Compound in assay [5]: c1ccc([C@@H]2C[C@H]2NC2CCNCC2)cc1
In a few lines:
as §1

On to SLC35A2 isoform 4 (UniProt P78381), for which the log2 fold change was inactive: -0.023 in assay [1]; inactive: -0.013 in assay [2]; inactive: -0.009 in assay [3]; inactive: -0.049 in assay [4]; inactive: -0.037 in assay [5].
With SLC37A4 isoform 2 (UniProt O43826), the log2 fold change in assay [1] is inactive: 0.071; in assay [2], inactive: -0.008; in assay [3] it was inactive: 0.002; in assay [4] it was inactive: -0.082; in assay [5], inactive: -0.12.
As to SLC46A1 (UniProt Q96NT5), the log2 fold change in assay [4] is inactive: 0.088; in assay [5], inactive: 0.029.
SLC66A1 (UniProt Q6ZP29): the log2 fold change is inactive: -0.025 in assay [1], inactive: -0.041 in assay [2] and inactive: 0 in assay [5].
As for SLCO2B1 (UniProt O94956), the log2 fold change in assay [5] is inactive: -0.104.
The same measure, in the same setting: in the case of SLC50A1 (UniProt Q9BRV3) it was inactive: -0.17.
Consider SLC35B1 isoform 2 (UniProt P78383), for which the log2 fold change was inactive: 0.012 in assay [3], inactive: 0.072 in assay [4] and inactive: -0.137 in assay [5].
On to SLC35A3 isoform 2 (UniProt Q9Y2D2), for which the figures for the log2 fold change in assay [3] and in assay [5] were inactive: 0.008 and inactive: -0.57, respectively.
For the target SLC41A1 (UniProt Q8IVJ1), the log2 fold change in assay [5] is inactive: -0.016.
In the case of SLC25A28 (UniProt Q96A46), the log2 fold change in assay [3] was inactive: 0.179.
Take SLC9A8 isoform 2 (UniProt Q9Y2E8): the log2 fold change in assay [1] was inactive: -0.022; in assay [2], inactive: -0.082; in assay [4], inactive: 0.01; in assay [5], inactive: -0.039.
Consider SLC25A23 isoform 3 (UniProt Q9BV35), for which the log2 fold change is inactive: -0.129 in assay [4] and inactive: 0.132 in assay [5].
For SLC39A1 (UniProt Q9NY26), the log2 fold change in assay [1] was inactive: -0.218; in assay [2], inactive: -0.021; in assay [4], inactive: -0.089; in assay [5] it was inactive: -0.174.
SLC25A35 (UniProt Q3KQZ1): the log2 fold change in assay [5] is inactive: 0.047.
Turning to SLC66A2 (UniProt Q8N2U9), the figures for the log2 fold change in assay [1], in assay [2] and in assay [4] were inactive: -0.209, inactive: -0.02 and inactive: 0.093, respectively.
Regarding SLC40A1 (UniProt Q9NP59), the log2 fold change in assay [3] is inactive: 0.013; in assay [4], inactive: -0.107; in assay [5], inactive: -0.205.
On to SLC39A7 (UniProt Q92504), for which the log2 fold change in assay [1] was inactive: -0.003; in assay [2] it was inactive: -0.038; in assay [3], inactive: -0.001; in assay [5] it was inactive: -0.019.
Take SLC8B1 (UniProt Q6J4K2): the log2 fold change in assay [3] is inactive: -0.05; in assay [4], inactive: 0; in assay [5], inactive: -0.042.
With SLC29A3 (UniProt Q9BZD2), in assay [5], the log2 fold change was inactive: -0.012.
Take SLC3A2 (UniProt F5H867): the log2 fold change is inactive: -0.066 in assay [1], inactive: 0.124 in assay [2] and inactive: -0.127 in assay [5].
With SLC2A13 (UniProt Q96QE2), the log2 fold change is inactive: -0.187 in assay [4] and inactive: 0 in assay [5].
As for SLC35C2 isoform 3 (UniProt Q9NQQ7), the log2 fold change in assay [1] is inactive: -0.125; in assay [2] it was inactive: 0.056; in assay [4], inactive: -0.037; in assay [5], inactive: 0.052.
As to SLC36A4 (UniProt Q6YBV0), the log2 fold change in assay [1] is inactive: 0.163; in assay [2], inactive: 0.105; in assay [4], inactive: -0.149; in assay [5], inactive: 0.022.
With SLC26A11 (UniProt Q86WA9), the log2 fold change in assay [5] is inactive: -0.015.
SMAD3 (UniProt P84022): the log2 fold change in assay [4] is inactive: 0.141.
SLC3A2 (UniProt F5GZS6): the log2 fold change in assay [1] was inactive: 0.074; in assay [2] it was inactive: -0.015; in assay [4], inactive: 0.169; in assay [5], inactive: 0.097.
In the case of SLC66A3 (UniProt Q8N755), the log2 fold change was inactive: 0.053 in assay [3] and inactive: -0.263 in assay [4].
In the case of SLX4 (UniProt Q8IY92), in assay [4], the log2 fold change is inactive: -0.232.
SLC23A2 (UniProt Q9UGH3): the log2 fold change is inactive: -0.019 in assay [4] and inactive: 0.147 in assay [5].
Taken in the same sequence, the figures for SMAGP (UniProt Q0VAQ4) were inactive: -0.053 and inactive: 0.031.
On to SLC25A36 (UniProt Q96CQ1), for which the log2 fold change is inactive: 0.013 in assay [3], inactive: 0.035 in assay [4] and inactive: 0 in assay [5].
With SLC25A16 (UniProt P16260), the log2 fold change is inactive: 0.039 in assay [3] and inactive: 0.024 in assay [5].
On to SLC44A1 (UniProt Q8WWI5), for which the log2 fold change in assay [4] was inactive: 0.204; in assay [5] it was inactive: -0.216.
As to SLCO4A1 (UniProt Q96BD0), the log2 fold change was inactive: 0.203 in assay [1], inactive: -0.372 in assay [2] and inactive: -0.013 in assay [5].
Regarding SLFN14 (UniProt P0C7P3), the log2 fold change in assay [1] was inactive: 0.11; in assay [2], inactive: -0.111; in assay [3], inactive: 0.067; in assay [5] it was inactive: -0.049.
SLC25A39 (UniProt Q9BZJ4): the log2 fold change is inactive: 0.385 in assay [4] and inactive: 0.094 in assay [5].
Regarding SLC39A6 (UniProt Q13433), the log2 fold change in assay [5] was inactive: 0.092.
On to SLC35D1 (UniProt Q9NTN3), for which the log2 fold change in assay [3] is inactive: 0.135.
The same measure, in the same setting: to SLC35E2B (UniProt P0CK96) belongs inactive: 0.098.
SLC38A6 isoform 2 (UniProt Q8IZM9): the log2 fold change in assay [3] is inactive: 0.082.
In the case of SLC39A8 (UniProt Q9C0K1), the log2 fold change in assay [3] was inactive: 0.177; in assay [5] it was inactive: -0.031.
